Experimental data taken from paper PMC5369963.
These are yes or no findings as the source states them, for the method shown. In cells and extracts the contact can be indirect. Some results given as binding are weak or reduced against the parent protein; the word gives no strength.

The chains behind the UniProt entries cited, without tags or fusion partners. Where a name states a change or a piece, a line headed by the entry shows the natural chain unless it says otherwise. A line that says so, or that is headed by a name, gives the form on record, which may keep a tag or linker.
ULF/TRIP12 (human (endogenous in HeLa)) (Q14669, form named): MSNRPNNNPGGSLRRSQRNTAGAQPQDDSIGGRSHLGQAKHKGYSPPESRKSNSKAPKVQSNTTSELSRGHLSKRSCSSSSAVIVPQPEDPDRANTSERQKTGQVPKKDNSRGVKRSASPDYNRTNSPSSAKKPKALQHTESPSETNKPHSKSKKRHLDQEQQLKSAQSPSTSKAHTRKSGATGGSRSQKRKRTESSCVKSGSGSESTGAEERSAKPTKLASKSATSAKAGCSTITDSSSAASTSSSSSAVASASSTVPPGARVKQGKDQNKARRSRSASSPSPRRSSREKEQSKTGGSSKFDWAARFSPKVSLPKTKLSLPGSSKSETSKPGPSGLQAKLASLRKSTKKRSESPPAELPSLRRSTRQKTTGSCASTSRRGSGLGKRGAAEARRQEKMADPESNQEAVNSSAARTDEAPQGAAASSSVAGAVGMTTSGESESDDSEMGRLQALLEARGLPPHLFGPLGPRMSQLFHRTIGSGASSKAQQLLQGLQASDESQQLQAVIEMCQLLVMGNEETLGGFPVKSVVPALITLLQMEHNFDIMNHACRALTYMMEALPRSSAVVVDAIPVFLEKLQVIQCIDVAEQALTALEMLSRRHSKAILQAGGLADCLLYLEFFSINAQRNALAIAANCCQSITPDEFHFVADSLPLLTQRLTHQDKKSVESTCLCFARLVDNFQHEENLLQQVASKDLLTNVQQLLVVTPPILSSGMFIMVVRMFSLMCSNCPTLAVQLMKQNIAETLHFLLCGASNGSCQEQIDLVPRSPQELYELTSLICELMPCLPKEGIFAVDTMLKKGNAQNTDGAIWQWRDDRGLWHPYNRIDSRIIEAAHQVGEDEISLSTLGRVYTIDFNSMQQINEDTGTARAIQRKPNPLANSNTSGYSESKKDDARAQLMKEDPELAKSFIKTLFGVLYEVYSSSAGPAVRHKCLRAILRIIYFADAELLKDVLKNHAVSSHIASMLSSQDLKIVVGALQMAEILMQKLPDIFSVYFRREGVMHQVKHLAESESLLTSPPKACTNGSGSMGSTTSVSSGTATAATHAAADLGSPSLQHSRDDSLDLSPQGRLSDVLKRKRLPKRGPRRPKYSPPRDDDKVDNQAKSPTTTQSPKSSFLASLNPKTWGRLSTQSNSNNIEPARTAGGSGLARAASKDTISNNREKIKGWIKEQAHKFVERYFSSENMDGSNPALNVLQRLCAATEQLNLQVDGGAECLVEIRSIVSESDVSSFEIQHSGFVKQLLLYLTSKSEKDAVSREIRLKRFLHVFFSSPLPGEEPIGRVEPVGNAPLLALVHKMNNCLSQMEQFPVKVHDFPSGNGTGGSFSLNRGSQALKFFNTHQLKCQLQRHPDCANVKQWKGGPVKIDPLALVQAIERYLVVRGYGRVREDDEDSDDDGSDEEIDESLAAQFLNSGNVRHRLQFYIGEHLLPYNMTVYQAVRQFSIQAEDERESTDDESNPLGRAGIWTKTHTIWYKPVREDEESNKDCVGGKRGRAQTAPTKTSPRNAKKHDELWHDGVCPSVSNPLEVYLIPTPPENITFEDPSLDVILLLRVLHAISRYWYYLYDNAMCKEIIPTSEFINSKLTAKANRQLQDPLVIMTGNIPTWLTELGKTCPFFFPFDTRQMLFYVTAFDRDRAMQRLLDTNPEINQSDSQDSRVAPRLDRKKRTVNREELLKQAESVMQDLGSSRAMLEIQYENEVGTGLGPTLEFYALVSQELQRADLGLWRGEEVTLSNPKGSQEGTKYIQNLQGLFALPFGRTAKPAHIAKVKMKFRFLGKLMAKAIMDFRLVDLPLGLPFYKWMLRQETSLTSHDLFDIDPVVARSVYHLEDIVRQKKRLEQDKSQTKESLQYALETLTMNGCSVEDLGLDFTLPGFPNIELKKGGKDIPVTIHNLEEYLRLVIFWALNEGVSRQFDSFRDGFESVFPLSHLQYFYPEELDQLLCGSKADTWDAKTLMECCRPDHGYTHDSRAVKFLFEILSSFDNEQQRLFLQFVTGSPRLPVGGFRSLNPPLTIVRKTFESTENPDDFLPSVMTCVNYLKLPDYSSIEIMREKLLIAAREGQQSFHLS

Target: ULF/TRIP12 (human (endogenous in HeLa)) (UniProt Q14669)
Assay: co-IP; HeLa cells transfected with GFP or GFP-GLT plasmids for 24 h; lysates immunoprecipitated with anti-ULF or isotype-matched control antibodies

endogenous ARF (from UniProt Q8N726 1-132)
binding: binds
